Source: PubChem BioAssay AID587 (National Center for Advancing Translational Sciences (NCATS), 2007)
Among all 59,000 compounds or so, about 35 (0.06%) were called active. Inconclusive means that the source gave no clear call. Such entries were picked first, then a sample of the others. Rule as the data show it: active = max dye-equivalent concentration above about 10 nM; inconclusive = between about 1.1 nM and that limit; inactive = weaker than that.

Test: qHTS Assay for Spectroscopic Profiling in Texas Red Spectral Region
Conditions: Compound fluorescence, Texas Red channel, 547/618 nm; stronger effect = higher value
How it was run: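 Pin-transferred compounds and Texas Red standards go into 100 mM Tris buffer, pH 8.0. After 15 min at room temperature, plates are imaged with 547/618 nm filters. Each value is a dye-equivalent concentration derived from the per-plate dye curve.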

SMILES | max dye-equivalent concentration
O=C1CC(c2ccc(Cl)cc2)n2nc(N3C(=O)c4ccccc4C3=O)nc2N1 (configuration not stated) | inconclusive: 1.1 nM
Cc1nnc(S(=O)(=O)c2ccc(N=Nc3c(N)nc(N)nc3N)cc2)s1 | inactive
C=CCNC(=O)C(C#N)c1nc2ccccc2nc1N1CCN(Cc2ccccc2)CC1 (configuration not stated) | inactive
CCOC(=O)COc1ccc(S(=O)(=O)N2CCc3ccccc3C2)cc1 | inconclusive: 1.6 nM
O=C(NCc1cccs1)[C@@H]1CSC2c3ccccc3C(=O)N21 (some centres not stated) | inconclusive: 1.1 nM
Brc1cc2c(cc1COc1ccc(-c3nn[nH]n3)cc1)OCO2 | inconclusive: 1.1 nM
CC(C)C(NC(=O)c1cccc(S(=O)(=O)N2CCOCC2)c1)C(=O)NCCc1ccccn1 (configuration not stated) | inactive
Cc1ccc2cc3cc(C(=O)N4CCN(C(=O)c5ccco5)CC4)sc3nc2c1 | inconclusive: 1.1 nM
CCOC(=O)c1c(NC(C)=O)no[n+]1[O-] | inconclusive: 2.5 nM
COc1ccc(C(=O)OCCN2CCOCC2)cc1OC | inconclusive: 1.6 nM
CC(C)(C)n1nnnc1CN(Cc1ccco1)Cc1cc2cc3c(cc2[nH]c1=O)OCO3 | inconclusive: 1.4 nM
COc1cc(NC(=O)CSCc2cnn(-c3ccccc3)c2-n2cccc2)cc(OC)c1 | inconclusive: 1.3 nM
CC(C)CC(c1nnnn1Cc1ccco1)N1CCN(c2cccc(Cl)c2)CC1 (configuration not stated) | inconclusive: 1.6 nM
NC(=O)CS(=O)(=O)c1nc2ccccc2n1CC(=O)N1CCCCC1 | inconclusive: 1.5 nM
Cc1nn(C)c(C)c1CN(C)C(=O)c1cc2nc(-c3ccco3)cc(C(F)(F)F)n2n1 | inconclusive: 1.3 nM
CC1CCN(CCCNC(=O)c2cn(C)c3ccc(S(=O)(=O)N4CCCC4)cc3c2=O)CC1 | inconclusive: 1.1 nM
COCCCn1c2nc3ccccc3nc2c2c(=O)n(Cc3ccc(Cl)cc3)cnc21 | inconclusive: 1.2 nM
CCOC(=O)N1CCN(C(=O)CCn2nc(-c3ccc(Cl)cc3)ccc2=O)CC1 | inconclusive: 1.2 nM
COCC(C)NC(=O)c1cc(-c2ccccc2OC)on1 (configuration not stated) | inconclusive: 1.5 nM
CCOc1nc(-c2ccc(OC)cc2)ccc1-c1noc(C)n1 | inconclusive: 1.3 nM
Cc1cc(C)cc(NC(=O)C2CCN(S(=O)(=O)c3c(C)n[nH]c3C)CC2)c1 | inconclusive: 1.3 nM
COCc1nnc(NC(=O)c2ccc(NC(=O)C(C)C)cc2)s1 | inconclusive: 1.2 nM

Some of the entries so far, in CSV form:
SMILES,max dye-equivalent concentration
Cc1ccc2cc3cc(C(=O)N4CCN(C(=O)c5ccco5)CC4)sc3nc2c1,inconclusive: 1.1 nM
CCOC(=O)c1c(NC(C)=O)no[n+]1[O-],inconclusive: 2.5 nM
COc1ccc(C(=O)OCCN2CCOCC2)cc1OC,inconclusive: 1.6 nM
Cc1nn(C)c(C)c1CN(C)C(=O)c1cc2nc(-c3ccco3)cc(C(F)(F)F)n2n1,inconclusive: 1.3 nM
COCc1nnc(NC(=O)c2ccc(NC(=O)C(C)C)cc2)s1,inconclusive: 1.2 nM

(cont.)

SMILES | max dye-equivalent concentration
O=C(O)c1cc(N=Nc2ccc([N+](=O)[O-])cc2)ccc1O | inconclusive: 1.4 nM
NC(=O)[C@@H]1CCCNC1 | inactive
CC1CCN(C(=O)C2Cc3ccccc3CN2S(=O)(=O)c2ccc(F)cc2)CC1 (configuration not stated) | inconclusive: 1.8 nM
O=C(c1cccs1)N1CCN(Cc2cccnc2)CC1 | inconclusive: 1.4 nM
CC1CCN(C(=O)c2ccc(NS(C)(=O)=O)cc2)CC1 | inconclusive: 1.2 nM
Cc1ccc(C(C(=O)NC(C)(C)C)N(CC2CCCO2)C(=O)Cn2nnc(-c3ccc(C)o3)n2)cc1 (configuration not stated) | inconclusive: 1.5 nM
COC(=O)c1sc(NC(=O)COc2ccccc2)nc1C | inconclusive: 1.3 nM
CC1=CC2(C#N)C3(N=C(N)C2(C#N)C(c2ccccc2)N1)OCCO3 (configuration not stated) | inconclusive: 1.1 nM
O=C(O)C1Cc2c([nH]c3ccccc23)C(c2ccc3c(c2)OCO3)N1 (configuration not stated) | inconclusive: 1.7 nM
CCOc1ccc(N2C(=O)CC(NCCc3ccncc3)C2=O)cc1 (configuration not stated) | inconclusive: 2.1 nM
CC1(CCc2ccccc2)NC(=O)N(Cc2nnc(-c3ccccc3Br)o2)C1=O (configuration not stated) | inconclusive: 1.4 nM
CCOC(=O)c1cc(-c2ccc3c(c2)OCCO3)nc2c1c(C)nn2CCC#N | inconclusive: 1.6 nM
O=C(NC1(C(F)(F)F)Oc2ccccc2O1)N1CCCC1 | inactive
COc1cc(CNc2nc3ccccc3[nH]2)cc(OC)c1OC | inconclusive: 1.9 nM
O=C(Nc1ccccc1)c1ccc(S(=O)(=O)NCc2ccco2)cc1 | inconclusive: 1.5 nM
Cc1ccc2c(CSc3nc4ccccc4c(=O)n3CCCO)cc(=O)oc2c1 | inconclusive: 1.5 nM
COCCCn1c(C(C)C)nc2oc3cc(OC)ccc3c(=O)c2c1=O | inconclusive: 1.8 nM
COc1ccc(CCNC(=O)CC2COc3ccccc3O2)cc1OC (configuration not stated) | inconclusive: 1.6 nM
COc1cccc(Cn2c(=O)c(-c3ccc(Cl)cc3)nc3cnc(N(C)C)nc32)c1 | inconclusive: 1.9 nM
COc1cc(OC)nc(NC(=O)CSc2nc3ccccc3o2)n1 | inactive
CN(Cc1ccccc1)c1nc2c(c(=O)[nH]c(=O)n2C)n1CCCSc1ncccn1 | inconclusive: 1.5 nM
Cc1cccc(NC(=O)CSc2nnc(-c3ccc(S(=O)(=O)N4CCCC4)cc3)o2)c1 | inconclusive: 1.9 nM

SMILES | max dye-equivalent concentration
O=C(CSc1nnnn1-c1ccc2c(c1)OCCO2)OC1CCCCC1 | inconclusive: 1.8 nM
Cc1cc(Cl)c(S(=O)(=O)Nc2ccccn2)cc1OCC(N)=O | inconclusive: 1.4 nM
CC1CCN(S(=O)(=O)c2ccc(S(=O)(=O)NCC3COCCO3)cc2)CC1 (configuration not stated) | inconclusive: 1.2 nM
Cc1ccc(S(=O)(=O)NC(=O)COc2ccccc2C(N)=O)cc1 | inconclusive: 1.1 nM
O=C(O)C1CCCCC1C(=O)Nc1ccccn1 (configuration not stated) | inconclusive: 1.2 nM
N#Cc1ccc(CSc2nnc(-c3cccnc3)n2-c2ccccc2)cc1 | inconclusive: 1.2 nM
COc1ccccc1-c1ccc2ncnc(NCCN3CCOCC3)c2c1 | inactive
COc1ccccc1N1CCN(C(=O)COc2ccc(Cl)cc2)CC1 | inconclusive: 1.9 nM
CC(C)(C)c1ccc(NC(=O)COC(=O)C2=COCCO2)cc1 | inconclusive: 2.8 nM
CCCc1[nH]nc2c1C(CCC)C(C#N)=C(N)O2 (configuration not stated) | inconclusive: 1.5 nM
CN1[C@@H]2CC(OC(=O)[C@@H](CO)c3ccccc3)C[C@@H]1[C@H]1O[C@H]12 (some centres not stated) | inactive
CC(=O)c1cnc(Nc2nc(C)c3cccc(C)c3n2)nc1C | inconclusive: 1.1 nM
CC(C)C(=O)N1CCc2cc(-c3csc(N)n3)ccc21 | inconclusive: 1.4 nM
Cc1cc(C)c(C)c(OCC(=O)NCc2nc(-c3ccccc3)no2)c1 | inconclusive: 2.4 nM
COc1ccc2cc(C(c3nnnn3Cc3ccc(F)cc3)N3CCCCCC3)c(=O)[nH]c2c1 (configuration not stated) | inconclusive: 1.4 nM
COC(=O)CSc1nc(C2CC2)nc2ccccc12 | inconclusive: 1.2 nM
Clc1ccc(Cc2noc(CN3CCN(c4ccccc4)CC3)n2)c(Cl)c1 | inconclusive: 1.4 nM
CCOC(=O)C1=C(N)Oc2cc(C)[nH]c(=O)c2C1c1ccncc1 (configuration not stated) | inconclusive: 1.1 nM
CC(=O)c1cccc(NC(=O)C2CCN(S(=O)(=O)c3ccc(C)cc3)CC2)c1 | inconclusive: 2.9 nM
N#CC1=C(N)N2C(=C(C#N)C1c1ccccc1)Sc1ccccc12 (configuration not stated) | inactive
COCc1nnc(N)s1 | inconclusive: 1.4 nM
CSc1ccccc1NC(=O)Nc1ccccc1 | inconclusive: 1.7 nM

SMILES | max dye-equivalent concentration
O=C1NC2(CCCc3ccccc32)C(=O)N1Cc1nnc(-c2ccccc2Br)o1 (configuration not stated) | inconclusive: 2.7 nM
CCN(CC)c1ccc(NC(=O)CN2CCN(c3ccc(F)cc3)CC2)cc1 | inconclusive: 1.2 nM
COC(=O)C(CC(=O)Nc1cc(C)ccc1C)Nc1ccccc1OC (configuration not stated) | inconclusive: 1.2 nM
Cc1noc(C)c1-c1nccc(NCc2ccccc2)n1 | inactive
O=C(O)c1ccccc1-c1ccccc1C(=O)Nc1ccc2c(c1)Cc1ccccc1-2 | inconclusive: 1.1 nM
COc1ccc(C2C=C(c3ccc(Br)s3)Nc3ncnn32)cc1OC (configuration not stated) | inactive
CCOC(=O)c1ncn2c1C(=O)OC2(C)C | inconclusive: 1.2 nM
CCOC(=O)c1[nH]c2ccc(OC)cc2c1NC(=O)CN1CCC2(CC1)OCCO2 | inconclusive: 1.4 nM
O=C(O)c1cc(N=Cc2ccccc2O)cc(C(=O)O)c1 | inactive
COc1ccccc1C(=O)Nc1ccc(S(=O)(=O)N2CCOCC2)cc1 | inconclusive: 1.5 nM
O=C(NC1CC2CCCC(C1)N2C1CC1)NC12CC3CC(CC(C3)C1)C2 (configuration not stated) | inconclusive: 2.1 nM
O=C(CSc1nnc2ccccn12)NC(=O)NC1CCCC1 | inconclusive: 1.2 nM
Nc1nnc(SCc2cc3c(cc2Cl)OCO3)s1 | inconclusive: 1.3 nM
OCC#CCSc1nnc(-c2ccccc2Br)o1 | inconclusive: 1.4 nM
COc1ccc(-c2nnc(CSc3nc4ccccc4c(=O)n3CC3CCCO3)o2)cc1OC (configuration not stated) | inconclusive: 1.3 nM
COc1ccc(-c2nnc(SCC(N)=O)n2N)cc1 | inconclusive: 1.2 nM
CCOC(=O)c1cnc(SCC(=O)N2CCc3ccccc32)nc1N | inconclusive: 1.5 nM
CC(C)=C(C#N)c1nc2ccccc2s1 | inconclusive: 1.9 nM
Cc1ccc(OCCCC(=O)Nc2ccc(S(=O)(=O)Nc3cc(C)on3)cc2)cc1 | inconclusive: 1.2 nM
CCOC(=O)C1CCN(S(=O)(=O)c2ccc(OCC)cc2)CC1 | inconclusive: 1.4 nM
Cc1ccc(C(=O)CNc2nc3c(c(=O)[nH]c(=O)n3C)n2Cc2ccccc2)cc1 | inconclusive: 2.1 nM
